“Also recorded” adds a separate entry of the source.
Assay: Reactivity with serine, lysine, tyrosine, threonine, arginine, histidine (1H-NMR, LCMS)
Settings: 250 µM each, 50 mM tris-d11, pH 7.5; up to 12 h

Structure (SMILES): O=C([C@H]1O[C@@H]1c1ccccc1)[C@@H]1O[C@H]1c1ccccc1 [DEK 1]
- reaction with serine, lysine, threonine, tyrosine, arginine, or histidine: No evidence for reaction; also recorded: apparently did not react

— article PMC10601815, “αβ,α′β′-Diepoxyketones are mechanism-based inhibitors of nucleophilic cysteine enzymes” (Chemical Communications (Cambridge, England), 2023)
